This note sets out measurements from patent US20060117402A1.

Chains of the proteins cited; added tags and fusions are not shown. Lines headed by an entry give the natural chain unless they say otherwise; changes in a name come on top.
UniProt P0A7C2: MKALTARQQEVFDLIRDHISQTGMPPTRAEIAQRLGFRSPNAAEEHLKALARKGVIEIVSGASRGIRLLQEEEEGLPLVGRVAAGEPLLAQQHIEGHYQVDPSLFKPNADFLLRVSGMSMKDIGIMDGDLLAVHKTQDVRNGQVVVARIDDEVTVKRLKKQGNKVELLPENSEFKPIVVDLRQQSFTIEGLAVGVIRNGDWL

Results are given in words; binding and its absence hold for the method and conditions named. For some assays here: In cells and extracts the contact can be indirect. Some entries that bind do so weakly or less than the wild type. For some assays here: Tags and fused reporters may be left off the sequences shown.

Experiment [1] addresses T1, full-length ABF2, in vitro translated and 35S-Met-labelled (Arabidopsis) (UniProt Q9M7Q4).
T1 sequence (35S-Met-labelled, looked up): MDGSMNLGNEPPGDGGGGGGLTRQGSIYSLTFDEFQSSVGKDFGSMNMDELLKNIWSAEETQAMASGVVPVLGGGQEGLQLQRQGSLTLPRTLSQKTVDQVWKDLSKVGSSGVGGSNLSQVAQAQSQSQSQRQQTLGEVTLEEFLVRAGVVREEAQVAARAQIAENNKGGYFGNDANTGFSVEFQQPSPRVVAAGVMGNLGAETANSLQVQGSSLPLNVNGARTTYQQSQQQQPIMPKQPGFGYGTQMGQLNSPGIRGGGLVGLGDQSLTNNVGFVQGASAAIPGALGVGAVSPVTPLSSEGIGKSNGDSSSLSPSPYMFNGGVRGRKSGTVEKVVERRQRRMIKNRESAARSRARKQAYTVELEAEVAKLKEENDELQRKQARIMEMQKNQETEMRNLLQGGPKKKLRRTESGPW
The experiment is described as follows: GST pulldown of 35S-labelled ABF2, autoradiography.

In experiment [2] the target is T2, ABF2 variable region (amino acids 234-337) bait, fused to the LexA DNA binding domain in pGilda (Arabidopsis) (UniProt P0A7C2+Q9M7Q4). The experiment in a line: yeast two-hybrid screen (LexA system).
For experiment [3], the target named is T2, ABF2 variable region (amino acids 234-337) bait, fused to the LexA DNA binding domain in pGilda (Arabidopsis). The experiment in a line: yeast two-hybrid screen, Leu+/LacZ+ colonies.

B1: GST-ARIA fusion protein containing the arm repeat region (amino acids 1-518) (protein, not shown: a dimerising Fc or GST)
chain: MDQQPERREGRSFPERKGQKRKLEEGAAAVEDREISAVSTDGGQALLSEVAAQVSVLNSAFSWQESDRAAAKRATQVLAELAKNEDLVNVIVDGGAVPALMTHLQAPPYNDGDLAEKPYEHEVEKGSAFALGLLAIKPEYQKLIVDKGALPHLVNLLKRNKDGSSSRAVNSVIRRAADAITNLAHENSSIKTRVRVEGGIPPLVELLEFSDSKVQRAAAGALRTLAFKNDDNKNQIVECNALPTLILMLGSEDAAIHYEAVGVIGNLVHSSPHIKKEVLTAGALQPVIGLLSSCCPESQREAALLLGQFASTDSDCKVHIVQRGAVRPLIEMLQSPDVQLKEMSAFALGRLAQDAHNQAGIAHSGGLGPLLKLLDSRNGSLQHNAAFALYGLADNEDNVSDFIRVGGIQKLQDGEFIVQATKDCVSKTLKRLEEKIHGRVLRHLLYLMRISEKSIQRRVALALAHLCSPEDQRTIFIDDNGLELLLGLLGSLNTKQQLDGAAALYKLANKSMALSPVD
Consider B1, for which the binding result in experiment [1] was “binds”.

B2: GST-ARIA fusion protein containing the BTB domain (amino acids 511-710) (protein, not shown: a dimerising Fc or GST)
chain: SMALSPVDAAPPSPTQRVYLGEQYVNNATLSDVTFLVEGRTFYAHRICLLASSDAFRAMFDGGYREKDARDIEIPNIKWEVFELMMRFIYTGSVDITNEISKDLLRAADQYLLEGLKRLCEYTIAQDITLESIGDMYELSEAFHAMSLRQACIMFILEHFDKLSSMPWQNELVQRTIPEIREYFCRALTKSTTNLQSLRL
As for B2, the binding result in experiment [1] was “binds”.

B3: GST-full-length ARIA fusion protein (protein, not shown: a dimerising Fc or GST)
chain: MDQQPERREGRSFPERKGQKRKLEEGAAAVEDREISAVSTDGGQALLSEVAAQVSVLNSAFSWQESDRAAAKRATQVLAELAKNEDLVNVIVDGGAVPALMTHLQAPPYNDGDLAEKPYEHEVEKGSAFALGLLAIKPEYQKLIVDKGALPHLVNLLKRNKDGSSSRAVNSVIRRAADAITNLAHENSSIKTRVRVEGGIPPLVELLEFSDSKVQRAAAGALRTLAFKNDDNKNQIVECNALPTLILMLGSEDAAIHYEAVGVIGNLVHSSPHIKKEVLTAGALQPVIGLLSSCCPESQREAALLLGQFASTDSDCKVHIVQRGAVRPLIEMLQSPDVQLKEMSAFALGRLAQDAHNQAGIAHSGGLGPLLKLLDSRNGSLQHNAAFALYGLADNEDNVSDFIRVGGIQKLQDGEFIVQATKDCVSKTLKRLEEKIHGRVLRHLLYLMRISEKSIQRRVALALAHLCSPEDQRTIFIDDNGLELLLGLLGSLNTKQQLDGAAALYKLANKSMALSPVDAAPPSPTQRVYLGEQYVNNATLSDVTFLVEGRTFYAHRICLLASSDAFRAMFDGGYREKDARDIEIPNIKWEVFELMMRFIYTGSVDITNEISKDLLRAADQYLLEGLKRLCEYTIAQDITLESIGDMYELSEAFHAMSLRQACIMFILEHFDKLSSMPWQNELVQRTIPEIREYFCRALTKSTTNLQSLRL
Consider B3, for which the binding entry in experiment [1] is on record as “binds”.

B4: Group 2 positive clone (clone 20), two-hybrid library clone encoding the arm repeat protein ARIA (At5g19330) (protein, not shown: large carriers)
chain: ERREGRSFPERKGQKRKLEEGAAAVEDREISAVSTDGGQALLSEVAAQVSVLNSAFSWQESDRAAAKRATQVLAELAKNEDLVNVIVDGGAVPALMTHLQAPPYNDGDLAEKPYEHEVEKGSAFALGLLAIKPEYQKLIVDKGALPHLVNLLKRNKDGSSSRAVNSVIRRAADAITNLAHENSSIKTRVRVEGGIPPLVELLEFSDSKVQRAAAGALRTLAFKNDDNKNQIVECNALPTLILMLGSEDAAIHYEAVGVIGNLVHSSPHIKKEVLTAGALQPVIGLLSSCCPESQREAALLLGQFASTDSDCKVHIVQRGAVRPLIEMLQSPDVQLKEMSAFALGRLAQDAHNQAGIAHSGGLGPLLKLLDSRNGSLQHNAAFALYGLADNEDNVSDFIRVGGIQKLQDGEFIVQATKDCVSKTLKRLEEKIHGRVLRHLLYLMRISEKSIQRRVALALAHLCSPEDQRTIFIDDNGLELLLGLLGSLNTKQQLDGAAALYKLANKSMALSPVDAAPPSPTQRVYLGEQYVNNATLSDVTFLVEGRTFYAHRICLLASSDAFRAMFDGGYREKDARDIEIPNIKWEVFELMMRFIYTGSVDITNEISKDLLRAADQYLLEGLKRLCEYTIAQDITLESIGDMYELSEAFHAMSLRQACIMFILEHFDKLSSMPWQNELVQRTIPEIREYFCRALTKSTTNLQSLRL
Consider B4, for which the binding entry in experiment [2] and in experiment [3] was “binds” in each case.
